According to patent publication US20030203451A1:
No constants are given. Whether binding was seen depends on the method and setting. For some of these results: Binding seen in cells or lysates may run through a third protein. Some entries that bind do so weakly or less than the wild type. For some of these results: Tags and fused reporters may be left off the sequences shown. Values belong to the binder of their own block, whether it stands above or below them.

By UniProt entry, the sequences of proteins in these tests, tags left out. Where a name states a change or a piece, a line headed by the entry shows the natural chain unless it says otherwise.
UniProt Q8NAC3: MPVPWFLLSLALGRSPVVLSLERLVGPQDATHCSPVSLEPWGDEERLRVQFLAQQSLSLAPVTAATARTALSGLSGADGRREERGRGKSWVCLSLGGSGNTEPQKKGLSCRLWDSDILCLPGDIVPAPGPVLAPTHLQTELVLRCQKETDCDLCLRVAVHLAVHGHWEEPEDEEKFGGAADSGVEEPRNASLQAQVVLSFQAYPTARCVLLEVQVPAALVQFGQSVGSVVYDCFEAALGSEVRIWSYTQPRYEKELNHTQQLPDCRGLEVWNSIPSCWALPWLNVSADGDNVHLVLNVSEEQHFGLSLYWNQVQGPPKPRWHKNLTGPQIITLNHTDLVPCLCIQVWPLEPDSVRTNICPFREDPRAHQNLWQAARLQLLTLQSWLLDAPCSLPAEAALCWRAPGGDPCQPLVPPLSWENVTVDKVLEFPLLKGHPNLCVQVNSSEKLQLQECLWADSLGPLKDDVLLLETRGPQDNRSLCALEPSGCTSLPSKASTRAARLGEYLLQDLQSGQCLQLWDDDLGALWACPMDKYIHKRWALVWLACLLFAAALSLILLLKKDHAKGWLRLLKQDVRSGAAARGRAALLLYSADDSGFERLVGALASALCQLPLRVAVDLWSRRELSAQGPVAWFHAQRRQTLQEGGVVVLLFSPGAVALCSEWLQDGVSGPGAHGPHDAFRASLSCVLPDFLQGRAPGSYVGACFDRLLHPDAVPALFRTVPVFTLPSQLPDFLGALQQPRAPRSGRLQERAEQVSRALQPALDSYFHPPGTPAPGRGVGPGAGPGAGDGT

What was measured:
[1] = molecular target: T1, human IL-17 receptor (IL-17R; designated PRO1), form not specified (human), Q96F46; assay: summary scheme of receptor-ligand specificities (FIG. 35); details: remark: other sources report otherwise
[2] = molecular target: T1, human IL-17 receptor (IL-17R; …); assay: receptor/ligand screen of Example 20; details: remark: other sources report otherwise
[3] = molecular target: T2, PRO20040 (human IL-17RH2 receptor), form not specified (human) (UniProt Q8NAC3); assay: receptor/ligand screen of Example 20
T2 sequence: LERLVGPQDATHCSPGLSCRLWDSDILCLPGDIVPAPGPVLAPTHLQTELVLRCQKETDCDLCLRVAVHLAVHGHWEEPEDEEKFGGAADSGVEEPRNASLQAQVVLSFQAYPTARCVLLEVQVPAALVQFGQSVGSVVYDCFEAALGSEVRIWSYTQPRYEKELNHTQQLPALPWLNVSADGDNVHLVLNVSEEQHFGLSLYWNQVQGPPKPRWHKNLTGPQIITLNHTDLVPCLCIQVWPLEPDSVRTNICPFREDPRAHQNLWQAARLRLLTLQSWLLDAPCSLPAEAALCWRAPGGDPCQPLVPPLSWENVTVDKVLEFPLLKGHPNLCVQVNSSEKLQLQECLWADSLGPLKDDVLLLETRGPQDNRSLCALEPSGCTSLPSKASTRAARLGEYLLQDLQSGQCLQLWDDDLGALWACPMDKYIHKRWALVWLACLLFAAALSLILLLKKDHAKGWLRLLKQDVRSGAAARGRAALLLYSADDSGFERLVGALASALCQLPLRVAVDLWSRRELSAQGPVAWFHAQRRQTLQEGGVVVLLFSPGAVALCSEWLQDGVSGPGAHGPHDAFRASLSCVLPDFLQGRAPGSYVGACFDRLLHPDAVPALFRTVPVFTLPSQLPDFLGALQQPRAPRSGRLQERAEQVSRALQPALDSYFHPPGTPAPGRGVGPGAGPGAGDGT

[4] = molecular target: T2, PRO20040 (human IL-17RH2 receptor), form not specified (human); assay: summary scheme of receptor-ligand specificities (FIG. 35)
[5] = molecular target: T2, PRO20040 (human IL-17RH2 receptor), form not specified (human); assay: receptor/ligand screen of Example 20 (FIG. 35)
[6] = molecular target: T3, His-epitope tagged IL-17RH1 receptor extracellular domain (human) (UniProt Q9NRM6); assay: pull-down of His-tagged IL-17RH1 ECD with ligand-Fc and Protein A beads, Western blot with anti-His antibody
T3 sequence: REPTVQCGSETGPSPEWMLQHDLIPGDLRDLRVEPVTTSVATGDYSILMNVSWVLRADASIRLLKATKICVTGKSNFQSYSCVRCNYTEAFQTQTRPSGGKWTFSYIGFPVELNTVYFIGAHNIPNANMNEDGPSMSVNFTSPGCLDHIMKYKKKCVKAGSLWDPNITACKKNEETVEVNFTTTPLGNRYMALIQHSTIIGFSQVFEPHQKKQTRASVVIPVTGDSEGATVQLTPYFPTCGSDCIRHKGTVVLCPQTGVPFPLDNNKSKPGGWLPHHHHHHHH

[7] = molecular target: T3, His-epitope tagged IL-17RH1 receptor extracellular domain (human); assay: Protein A pull-down of ligand-Fc, Western blot for His-tagged IL-17RH1 ECD
[8] = molecular target: T4, PRO5801 (human IL-17RH1 receptor), form not specified (human) (UniProt Q9NRM6); assay: summary scheme of receptor-ligand specificities (FIG. 35)
T4 sequence: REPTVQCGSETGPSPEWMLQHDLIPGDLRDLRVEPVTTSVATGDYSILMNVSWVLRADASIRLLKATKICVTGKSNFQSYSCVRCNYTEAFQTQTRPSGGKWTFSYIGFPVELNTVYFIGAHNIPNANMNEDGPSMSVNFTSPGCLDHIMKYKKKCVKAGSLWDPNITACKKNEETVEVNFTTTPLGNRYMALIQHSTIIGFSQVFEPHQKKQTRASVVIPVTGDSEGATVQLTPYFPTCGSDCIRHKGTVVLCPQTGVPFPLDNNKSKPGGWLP

[9] = molecular target: T4, PRO5801 (human IL-17RH1 receptor), form not specified (human); assay: receptor/ligand screen of Example 20 (immunoadhesin on transfected cells, or tagged ligand co-precipitated with receptor-Fc)
[10] = molecular target: T4, PRO5801 (human IL-17RH1 receptor), form not specified (human); assay: receptor/ligand screen of Example 20

B3: IL-17B.Fc fusion protein (Fc fusion, not shown: a dimerising Fc or GST)
chain: QPRSPKSKRKGQGRPGPLAPGPHQVPLDLVSRMKPYARMEEYERNIEEMVAQLRNSSELAQRKCEVNLQLWMSNKRSLSPWGYSINHDPSRIPVDLPEARCLCLGCVNPFTMQEDRSMVSVPVFSQVPVRRRLCPPPPRTGPCRQRAVMETIAVGCTCIF
- binding [6]: binds
- binding [7]: binds

B4: PRO1031 (human IL-17B ligand), as tested in the Example 20 screen (ligand, not shown: a dimerising Fc or GST)
chain: B3 chain
- binding [8]: binds
- binding [9]: binds

B5: IL-17E-Fc fusion protein (IL-17E immunoadhesin) (Fc fusion, not shown: a dimerising Fc or GST)
chain: YSHWPSCCPSKGQDTSEELLRWSTVPVPPLEPARPNRHPESCRASEDGPLNSRAISPWRYELDRDLNRLPQDLYHARCLCPHCVSLQTGSHMDPRGNSELLYHNQTVFYRRPCHGEKGTHKGYCLERRLYRVSLACVCVRPRVMG
- binding [6]: binds
- binding [7]: binds

B6: PRO10272 (human IL-17E ligand), as tested in the Example 20 screen (ligand, not shown: a dimerising Fc or GST)
chain: B5 chain
- binding [10]: binds
- binding [8]: binds

Further lines, results first:

- binding [1]: binds
- binding [2]: binds
B1: PRO20110 (human IL-17F ligand), as tested in the Example 20 screen, Q96PD4 31-163 (ligand, not shown: a dimerising Fc or GST)
chain: RKIPKVGHTFFQKPESCPPVPGGSMKLDIGIINENQRVSMSRNIESRSTSPWNYTVTWDPNRYPSEVVQAQCRNLGCINAQGKEDISMNSVPIQQETLVVRRKHQGCSVSFQLEKVLVTVGCTCVTPVIHHVQ

- binding [3]: binds
- binding [4]: binds
- binding [5]: binds
B2: PRO20110 (human IL-17F ligand), as tested in the Example 20 screen (ligand, not shown: a dimerising Fc or GST)
chain: B1 chain
